Experimental data from PubChem BioAssay AID2326 (National Center for Advancing Translational Sciences (NCATS), 2010).
In all, about 270,000 compounds went through this assay and about 1,100 (0.41%) were called active. Listed are the inconclusive results; actives and inactives stand elsewhere. The call rests on the fitted dose curve. Some salts or complexes appear as unconnected parts, following the source record.

Assay: qHTS Assay for Inhibitors of Influenza NS1 Protein Function; further: actives are rising curves; nearly all actives have a fitted effect of over 50% in size
Conditions: cell-based NS1 function reporter
Potency means the concentration at half of the fitted maximal effect.

Row | SMILES | Potency
1 | COc1ccc2c(c1O)-c1c(O)c(OC)cc3c1[C@H](C2)[N+](C)(C)CC3.O=[N+]([O-])c1cc([N+](=O)[O-])c([O-])c([N+](=O)[O-])c1[O-] | inconclusive: 4.47 µM
2 | COc1cc(OC)cc(C(=O)NCC2(N3CCCCC3)CCCCC2)c1 | inconclusive: 20 µM
